Measurements as given in PubChem BioAssay AID602296 (Broad Institute, 2012).
Screen size: about 2,000 compounds; about 190 (9.5%) were called active. About 14% were inconclusive and are not listed.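 The calls were made as follows: active = fitted activation curve crossing 40% at a concentration no higher than the sample's top valid tested dose; inconclusive = flat fitted curve at 30% to 70% activation, or poor curve fit; inactive = signal decrease, flat curve within 30%, or the rest.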 Most of the strongest results are missing from this list.

test: HSF-1 reporter activators over prolonged exposure, confirmation, cell-based, mouse, luciferase, cherry-pick, dose (AID 602296); settings: NIH3T3-HGL HSF-1 response element luciferase, 48 h; at 26 µM (top of the series) unless noted;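 also: test compounds applied by themselves with no MG132 co-treatment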

activation, inactive:
O=C(CSc1cc(Cl)ccc1Cl)NCC(=O)Nc1ccc(F)c(F)c1F -0.799%
Cc1cc2nc3ccc(=[N+](C)C)cc-3sc2cc1N -82.9%
CCn1c(=O)n(CC)c2cc(S(=O)(=O)Nc3ccccc3C)c(C)cc21 -35.8%
CCCc1cc(=O)oc2c3c(cc(OCC(=O)N[C@@H](C)C(=O)O)c12)OC(C)(C)CC3 -8.19%
CCOC(=O)c1c(NC(=O)CSc2nc3cc(Cl)ccc3c(=O)n2Cc2ccco2)sc(C(=O)N(C)C)c1C -29.4%
S=C(c1cn(Cc2ccc(Br)cc2)c2ccccc12)N1CCOCC1 -21.8%
COc1ccc(C2CC(=O)C3=C(C2)Nc2ncnn2C3c2ccccc2)cc1 (stereo not drawn) -9.17%
Cc1ccc2c(CN3CCN(S(=O)(=O)/C=C/c4ccccc4)CC3)cc(=O)oc2c1 -1.07%
CCN(CCCNC(=O)CCCN1C(=O)COc2ccc(C)cc21)c1cccc(C)c1 -34.6%
Cc1ccc(CNC(=O)Cn2ccc3ccccc3c2=O)o1 10.8%
Cc1ccc(CN2CCN(/N=C/c3ccc(C)s3)CC2)c(C)c1 15.4%
CCN(CC)S(=O)(=O)c1ccc(OC)c(NC(=O)c2cc3c(=O)n4ccccc4nc3s2)c1 13.6%
O=c1[nH]c(CCl)nc2cc(-c3ccc(F)cc3)sc12 -75.9%
COc1cc2c(cc1OC)C(C)N(S(=O)(=O)c1cnc(Cl)c(Cl)c1)CC2 (stereo not drawn) -29.7%
O=C(CSc1nc(O)cc(=O)n1-c1ccccc1)Nc1ccc2c3c(cccc13)CC2 -3.56%
COC(=O)c1cc(OC)c(OC)cc1NC(=S)N1CCCC1 1.22%
CCOC(=O)/C=C/C(=O)OCC(=O)NC(c1ccccc1)c1ccccc1 -43.9%
CCOC(=O)CSc1nc2c(sc3ccc([N+](=O)[O-])cc32)c(=O)n1Cc1ccco1 -15.3%
Cc1ccccc1N=C1SC(CC(=O)Nc2ccc3ccccc3c2)C(=O)N1Cc1ccccn1 (stereo not drawn) -68.6%
COC(=O)N1C(=O)[C@@](c2ccccc2)(C2CCCC2)N1C(=O)OC 1.01%
CCc1ccccc1NC(=O)COc1ccc2c(=O)c(Oc3cc(C)ccc3C)coc2c1 -23.8% [at 12 µM]
COc1ccc(CNC2CCSc3ccccc32)cc1OC (stereo not drawn) -9.8%
Oc1ccc(C2C[C@H]3CC[C@@H]2C3)cc1O (stereo partly drawn) -46.2%
CCn1cnc2c1c(=O)n(Cc1nnc3n1-c1ccccc1SC3)c(=O)n2Cc1ccccc1 -8.97%
O=[N+]([O-])c1ccc(/C=[N+](\[O-])[C@@H]2CCCC[C@@H]2/[N+]([O-])=C/c2ccc([N+](=O)[O-])o2)o1 -100%
CCCc1cc(=O)oc2cc(C)c(CN3CCCC3)c(O)c12 3.75%
Cc1ccc2c(c1)/C(=C/c1ccc(F)cc1)C(=O)N2 -38.1%
CN(CC(=O)Nc1ccccc1Cl)CC(=O)Nc1c(F)cccc1F -16%
COc1ccc2c(c1)c(C(=O)CN1CCCCC1)c(C)n2C -1.51%
CCOc1ccc(S(=O)(=O)NCCSc2ccccc2)cc1 -2.3%
Cc1ccc(C(c2nnnn2C2CCCC2)N2CCc3ccccc32)cc1 (stereo not drawn) 22.2%
Cc1cc2c(ncn2C)c(NS(=O)(=O)c2cc(Cl)ccc2Cl)c1C -10.5%
O=C(CSc1nnc(-c2ccccc2)c(-c2ccccc2)n1)N1CCc2ccccc21 -17.6%
Cc1cc(C(=O)c2ccc(C(C)(C)C)cc2)c(NC(=O)CCl)s1 -108%
Cc1cccc(CN2CCC(C(=O)Nc3cccc(-c4cscn4)c3)CC2)n1 -16.6%
S=c1[nH]cc(-c2ccccc2)n1-c1ccccc1Cl -7.21%
COC(=O)c1c(NC(=O)c2ccc([N+](=O)[O-])o2)sc2c1CCN(C(C)C)C2 -93.6%
Oc1ccc(-c2nc3cnccn3c2Nc2ccc3c(c2)OCCO3)cc1 1.81%
Cc1cc(Sc2nnc(N)s2)c2ccccc2n1 -101%
C=CCn1c(CCNC(=O)c2ccc(Cl)c(Cl)c2)nnc1SCCOc1ccc(OC)cc1 -47%
COCCCNC(=O)c1c[nH]c2ccc(S(=O)(=O)N3CCc4ccccc43)cc2c1=O -7.37%
COc1ccc(C)cc1NC(=O)CSc1nnc(COc2ccc(Cl)cc2)n1Cc1ccco1 -95.2%
Fc1ccc(C2NC(=S)NC3=C2N2CCC3CC2)cc1 (stereo not drawn) -0.901%
COC(=O)/C(C#N)=C/c1c(N2CCCCCC2)nc2c(C)cccn2c1=O -36.1%
CCc1cc(=O)oc2c(CNCc3ccccc3F)c(O)c(Cl)cc12 2.3%
CC(C)N(Cc1nc(-c2ccc(Cl)cc2)no1)C(=O)CN(C)S(=O)(=O)c1ccc(Cl)cc1 -36%
Oc1cc(-c2ccccc2)c2ccccc2c1 -26.3%
O=C(CCc1nnc(Cc2ccc(-c3ccccc3)cc2)o1)N1CCCC1 -14.5%
COc1ccc(C2=CC(=O)CC(c3ccc(F)cc3)C2)cn1 (stereo not drawn) 1.78%
O=C(c1ccc(Br)cc1)N1CCCC(c2nc(-c3cccs3)no2)C1 (stereo not drawn) -37.2%
O=C(O)CSc1cc(NS(=O)(=O)c2ccc(Br)cc2)c2ccccc2c1O -84.1%
O=C(Cc1ccc([N+](=O)[O-])cc1)N1N=C(C2CC2)CC1(O)C(F)(F)F (stereo not drawn) -21.4%
O=C(COC(=O)C1CC2C=CC1C2)Nc1ccc2c(c1)OC(F)(F)O2 (stereo not drawn) -1.01%
O=C1/C(=C/c2ccccc2Cl)SC(=S)N1CCC(=O)N1CCCCC1CCO (stereo not drawn) -83.9%
O=C(NCc1cc(C(F)(F)F)cc(C(F)(F)F)c1)C1CC(c2cccc([N+](=O)[O-])c2)=NO1 (stereo not drawn) 14.3%
Cc1ccc(CNC(=O)c2cn(C3CCCCC3)c(=O)c3c2c2ccccc2n3C)o1 -20.5%
N#C/C(=C\c1ccc(Cl)cc1)c1nc2ccccc2o1 21.5%
Cc1ccc(-c2noc(CCC(=O)Nc3cc(C)ccn3)n2)cc1 0.829%
NC(=O)c1ccc(C(F)(F)F)n(Cc2cccc(Cl)c2)c1=O -53.6%
CO/N=C/c1cc([N+](=O)[O-])ccc1Sc1ccc(C)cc1 -4.88%
O=C(Oc1ccc2c(c1)OCO2)c1cc2c(s1)CCC2 0.52%
Cc1cc2c(c(/C=C/C(=O)c3ccccc3)c1)OC1(C=C2)Oc2ccccc2C(=O)N1C (stereo not drawn) -105%
O=c1ccc2ccc(Oc3ccc([N+](=O)[O-])cc3[N+](=O)[O-])cc2o1 -98.4%
COc1ccc(NC(=O)CSc2nnc(Cn3cnc([N+](=O)[O-])n3)n2C)cc1 -0.468%
CCOc1ccc(C2C3=C(CCCC3=O)Nc3ccc4ncccc4c32)cc1 (stereo not drawn) -38.2%
O=[N+]([O-])c1ccc(-n2nnnc2-c2ccccc2)c([N+](=O)[O-])c1 -99.1%
O=C(CNc1cccc2ccccc12)N/N=C/c1ccc([N+](=O)[O-])cc1 12.1%
Cc1cccc(C2C3=C(CCCC3=O)N=C3c4ccccc4C(=O)C32)c1 (stereo not drawn) -27.8%
Oc1ccccc1N=Nc1nc(-c2ccccc2)c(-c2ccccc2)[nH]1 -85.5%
CCOc1ccc(CNc2ccc(N3CCN(Cc4ccccc4)CC3)cc2)cc1 -9.36%
CCOC(=O)c1ccc(NC(=O)CCS(=O)(=O)c2ccc(Br)s2)cc1 -20.9%
Cc1cc(Cl)n2c(nc3cc(F)c(F)cc32)c1C#N -104%
COc1ccc(Br)cc1CN1CCCCCCC1 -4.28%
CCN(CCCNC(=O)COc1cc(=O)n(C)c2ccccc12)c1cccc(C)c1 -2.33%
CCCCOC(=O)CCCc1ccc([N+](=O)[O-])cc1[N+](=O)[O-] 3.01%
Cc1ccc(N=C(NOCc2ccc(Cl)cc2Cl)c2nonc2N)c(C)c1 -41.7%
Cc1ccc(/C=C/C(=O)Nc2ccc([N+](=O)[O-])c(NC(=O)/C=C/c3ccc(C)o3)c2)o1 -13.5%
CC(Oc1ccc(Cl)cc1Cl)C(=O)NCCCCc1ccccc1 (stereo not drawn) -48.6%
CCOC(=O)CC(=O)CSCC(=O)Nc1ccc(C)cc1 -2.4%
COCCCn1c(C(=O)NC2CCCCC2C)cc2c(=O)n3cccc(C)c3nc21 (stereo not drawn) -5.49%
CN(CCc1ccccc1)C(=O)c1cc(COc2cccc(C(F)(F)F)c2)on1 7.01%
CCOC(=O)/C(C#N)=C/c1cn(CCC(=O)O)nc1-c1ccc(Cl)cc1 -1.89%
O=S1(=O)c2cccc3cccc(c23)N1Cc1nnc(-c2ccccc2Br)o1 -6.01%
Cc1cc(C(=O)CCl)c(C)n1CCc1ccc(Cl)cc1 -103%
CCN(CC)C(=S)Nc1ccc(Cl)c(Cl)c1 -6.29%
CN(C)c1ccc(C(C[N+](=O)[O-])c2c(N)n(C)c(=O)n(C)c2=O)c(F)c1C#N (stereo not drawn) -2.77% [at 6 µM]
O=C(Nc1ccccc1F)C(=Cc1sc(N2CCOCC2)nc1-c1ccccc1)C(=O)Nc1ccccc1F -13.9%
N/C(=N\c1nc2c(c(=O)[nH]1)CCC2)Nc1ccccc1C(F)(F)F 2.14%

4 compounds drawn at random from the list so far:
activation, inactive:
Cc1ccc(CNC(=O)c2cn(C3CCCCC3)c(=O)c3c2c2ccccc2n3C)o1 -20.5%
O=C(CSc1nnc(-c2ccccc2)c(-c2ccccc2)n1)N1CCc2ccccc21 -17.6%
CCOC(=O)/C(C#N)=C/c1cn(CCC(=O)O)nc1-c1ccc(Cl)cc1 -1.89%
Cc1cc(C(=O)c2ccc(C(C)(C)C)cc2)c(NC(=O)CCl)s1 -108%
